Experimental data as given in PMC4877382.

Experiments:
Assay in all cases: EMSA with Western blot
[1] = molecular target: T1, FIS (Escherichia coli) (UniProt P0A6R3); details: anti-FIS; EMSA: 10 mM Tris-HCl pH 8, 10 mM MgCl2, 100 mM NaCl, 10 mM KCl, 1 mM spermidine, 0.5 mM DTT, 5% glycerol, 0.08 mg/ml BSA, 50 ng poly dI-dC, 25 C, 15 min; native protein; probe letters rebuilt from the primers and the genome
T1 sequence (looked up, limits assumed): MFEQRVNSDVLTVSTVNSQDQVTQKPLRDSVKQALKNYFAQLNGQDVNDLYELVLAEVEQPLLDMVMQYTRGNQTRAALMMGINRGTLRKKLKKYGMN

[2] = system: FIS + H-NS; details: FIS 70-280 nM and H-NS 800 nM, same complexes seen with both antibodies; EMSA: 10 mM Tris-HCl pH 8, 10 mM MgCl2, 100 mM NaCl, 10 mM KCl, 1 mM spermidine, 0.5 mM DTT, 5% glycerol, 0.08 mg/ml BSA, 50 ng poly dI-dC, 25 C, 15 min; native protein; probe letters rebuilt from the primers and the genome
[3] = molecular target: T2, H-NS (Escherichia coli) (UniProt P0ACF8); details: anti-H-NS; EMSA: 10 mM Tris-HCl pH 8, 10 mM MgCl2, 100 mM NaCl, 10 mM KCl, 1 mM spermidine, 0.5 mM DTT, 5% glycerol, 0.08 mg/ml BSA, 50 ng poly dI-dC, 25 C, 15 min; native protein; probe letters rebuilt from the primers and the genome
T2 sequence (looked up, limits assumed): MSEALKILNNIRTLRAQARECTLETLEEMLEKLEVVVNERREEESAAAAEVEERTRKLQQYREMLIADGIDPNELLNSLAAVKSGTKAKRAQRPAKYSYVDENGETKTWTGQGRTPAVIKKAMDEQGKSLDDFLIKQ

Measured: binding result

CAACCCGGCATTAAGTAAGCAGTTGATGGAATAGACTTTTATCCACTTTATTGCTGTTTACGGTCCTGATGACAGGACCGTTTTCCAACCGATTAATCATAAATATGAAAAATAATTGTTGCATCACCCGCCAATGCGTGGCTTAATGCACATCAACGGTTTGACGTACAGACCATTAAAGCAGTGTAGTAAGGCAAGTCCCTTCAAGAGTTATCGTTGATACCCCTCGTAGTGCACATTCCTTTAACGCTTCAAAATCTGTAAAGCACGCCATATCGCCGAAAGGCACACTTAATTATTAAAGGTAATACACTATGTCCGGTAAAATGACTGGTATCGTAAAATGG (double strand) [cspA promoter 340 bp PCR fragment]
binds: all assays above

For at least one entry, the source does not settle the construct or the ends of the probe. For part of these data: Tags and fusion partners may be left off the protein sequences shown.
